The source of these data is PMC3020946.

By UniProt entry, the sequences of proteins in these tests, tags left out.
UniProt Q86VP6: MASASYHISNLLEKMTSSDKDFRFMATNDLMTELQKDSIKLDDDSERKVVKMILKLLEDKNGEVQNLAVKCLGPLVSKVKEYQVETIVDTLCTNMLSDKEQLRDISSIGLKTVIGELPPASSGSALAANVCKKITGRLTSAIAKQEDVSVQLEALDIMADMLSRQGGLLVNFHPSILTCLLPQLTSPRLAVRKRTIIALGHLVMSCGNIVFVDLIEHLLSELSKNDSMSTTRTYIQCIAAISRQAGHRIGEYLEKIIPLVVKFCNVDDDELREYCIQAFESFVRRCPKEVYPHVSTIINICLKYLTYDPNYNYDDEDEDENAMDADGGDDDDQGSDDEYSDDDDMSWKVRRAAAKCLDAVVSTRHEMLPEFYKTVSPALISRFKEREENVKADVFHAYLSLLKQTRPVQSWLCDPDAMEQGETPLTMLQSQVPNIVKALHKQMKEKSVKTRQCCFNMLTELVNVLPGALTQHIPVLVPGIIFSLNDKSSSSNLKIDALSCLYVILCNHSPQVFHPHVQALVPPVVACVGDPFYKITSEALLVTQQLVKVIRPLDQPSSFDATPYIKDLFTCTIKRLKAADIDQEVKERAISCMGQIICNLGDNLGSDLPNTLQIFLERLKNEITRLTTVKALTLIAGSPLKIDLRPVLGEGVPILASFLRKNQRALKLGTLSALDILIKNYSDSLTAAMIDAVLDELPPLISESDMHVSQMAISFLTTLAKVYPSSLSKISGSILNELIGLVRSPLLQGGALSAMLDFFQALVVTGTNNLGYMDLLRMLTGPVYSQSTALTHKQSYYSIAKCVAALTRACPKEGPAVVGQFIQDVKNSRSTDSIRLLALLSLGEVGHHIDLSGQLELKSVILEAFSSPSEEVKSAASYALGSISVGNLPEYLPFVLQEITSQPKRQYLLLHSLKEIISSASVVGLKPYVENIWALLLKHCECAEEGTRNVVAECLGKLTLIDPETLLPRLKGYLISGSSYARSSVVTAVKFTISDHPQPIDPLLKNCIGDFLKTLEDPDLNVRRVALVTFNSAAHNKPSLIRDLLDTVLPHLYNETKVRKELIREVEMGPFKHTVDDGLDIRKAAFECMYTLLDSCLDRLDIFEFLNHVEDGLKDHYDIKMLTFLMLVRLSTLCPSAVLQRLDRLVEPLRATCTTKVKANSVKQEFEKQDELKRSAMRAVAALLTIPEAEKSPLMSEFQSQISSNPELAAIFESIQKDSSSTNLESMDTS
UniProt Q93034: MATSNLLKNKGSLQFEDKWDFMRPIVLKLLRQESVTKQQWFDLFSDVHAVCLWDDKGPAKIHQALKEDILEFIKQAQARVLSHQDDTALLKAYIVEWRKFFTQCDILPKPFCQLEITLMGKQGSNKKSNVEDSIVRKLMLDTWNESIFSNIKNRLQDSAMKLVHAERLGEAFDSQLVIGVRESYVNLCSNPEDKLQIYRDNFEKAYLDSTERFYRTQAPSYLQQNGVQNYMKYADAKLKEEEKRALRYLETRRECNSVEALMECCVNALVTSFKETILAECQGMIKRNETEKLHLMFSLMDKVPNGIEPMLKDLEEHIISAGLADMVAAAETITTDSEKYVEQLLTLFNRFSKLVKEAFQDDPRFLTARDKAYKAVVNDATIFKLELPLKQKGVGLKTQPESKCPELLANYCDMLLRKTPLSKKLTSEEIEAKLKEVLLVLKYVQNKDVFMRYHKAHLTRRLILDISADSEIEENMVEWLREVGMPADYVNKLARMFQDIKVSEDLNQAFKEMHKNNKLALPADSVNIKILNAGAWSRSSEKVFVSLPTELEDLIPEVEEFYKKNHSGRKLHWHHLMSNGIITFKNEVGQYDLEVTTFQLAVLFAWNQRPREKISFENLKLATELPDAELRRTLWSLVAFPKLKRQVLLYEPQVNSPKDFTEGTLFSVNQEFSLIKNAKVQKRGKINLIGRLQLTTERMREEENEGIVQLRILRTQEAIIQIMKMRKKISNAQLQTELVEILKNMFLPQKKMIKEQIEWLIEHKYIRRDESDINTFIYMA

The assay addresses N-terminally FLAG-tagged and C-terminally HA-tagged CAND1 (human) (UniProt Q86VP6). Briefly: affinity purification with mass spectrometry; anti-FLAG immunoprecipitation of FLAG-CAND1-HA from tetracycline-induced stable HEK293 cells; hypotonic lysis buffer (25 mM Tris, 2 mM EDTA, 2 mM EGTA); washed four times with 1X PBS; SDS-PAGE, Coomassie; bands of about 85 kDa identified by mass spectrometry.

These are yes or no findings as the source states them, for the method shown. Binding seen in cells or lysates may run through a third protein. These calls come from enrichment with a bait or labelling near it, and not all partners need be listed.

Turning to “Cul5 (endogenous, HEK293) (from UniProt Q93034 1-780)”, the binding result is “binds”.
